Source: PMC7778541

Amino acid sequences for entries named in this document (tags omitted).
UniProt P38159: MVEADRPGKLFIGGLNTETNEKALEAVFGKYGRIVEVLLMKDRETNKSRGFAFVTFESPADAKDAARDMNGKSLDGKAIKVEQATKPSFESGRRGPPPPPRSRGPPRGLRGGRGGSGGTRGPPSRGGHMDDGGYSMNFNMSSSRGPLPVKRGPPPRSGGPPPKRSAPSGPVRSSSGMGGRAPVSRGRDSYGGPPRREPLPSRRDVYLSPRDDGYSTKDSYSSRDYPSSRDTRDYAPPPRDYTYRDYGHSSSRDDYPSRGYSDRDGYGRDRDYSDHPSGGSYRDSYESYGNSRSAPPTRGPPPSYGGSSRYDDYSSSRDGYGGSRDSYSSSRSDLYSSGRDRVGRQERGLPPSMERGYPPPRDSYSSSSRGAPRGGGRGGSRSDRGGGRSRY
UniProt P13010: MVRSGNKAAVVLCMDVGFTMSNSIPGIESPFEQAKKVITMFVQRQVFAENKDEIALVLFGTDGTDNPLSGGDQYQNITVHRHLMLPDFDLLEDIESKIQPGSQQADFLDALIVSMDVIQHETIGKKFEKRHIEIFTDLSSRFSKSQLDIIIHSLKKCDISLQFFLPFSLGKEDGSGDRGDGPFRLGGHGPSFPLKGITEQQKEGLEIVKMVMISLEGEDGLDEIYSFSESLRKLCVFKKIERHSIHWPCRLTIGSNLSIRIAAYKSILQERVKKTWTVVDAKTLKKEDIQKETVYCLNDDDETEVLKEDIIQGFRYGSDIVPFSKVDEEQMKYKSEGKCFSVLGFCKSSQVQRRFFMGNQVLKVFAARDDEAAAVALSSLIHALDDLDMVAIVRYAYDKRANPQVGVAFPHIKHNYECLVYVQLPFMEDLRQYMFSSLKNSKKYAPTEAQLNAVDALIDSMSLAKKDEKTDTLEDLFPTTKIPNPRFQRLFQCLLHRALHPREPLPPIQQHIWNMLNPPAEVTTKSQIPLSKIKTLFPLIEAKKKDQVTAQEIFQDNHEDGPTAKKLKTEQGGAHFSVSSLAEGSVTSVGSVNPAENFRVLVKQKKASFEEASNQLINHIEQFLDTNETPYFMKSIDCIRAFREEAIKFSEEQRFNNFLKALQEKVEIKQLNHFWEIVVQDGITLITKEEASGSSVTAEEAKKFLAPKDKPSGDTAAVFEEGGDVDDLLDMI
UniProt P31943: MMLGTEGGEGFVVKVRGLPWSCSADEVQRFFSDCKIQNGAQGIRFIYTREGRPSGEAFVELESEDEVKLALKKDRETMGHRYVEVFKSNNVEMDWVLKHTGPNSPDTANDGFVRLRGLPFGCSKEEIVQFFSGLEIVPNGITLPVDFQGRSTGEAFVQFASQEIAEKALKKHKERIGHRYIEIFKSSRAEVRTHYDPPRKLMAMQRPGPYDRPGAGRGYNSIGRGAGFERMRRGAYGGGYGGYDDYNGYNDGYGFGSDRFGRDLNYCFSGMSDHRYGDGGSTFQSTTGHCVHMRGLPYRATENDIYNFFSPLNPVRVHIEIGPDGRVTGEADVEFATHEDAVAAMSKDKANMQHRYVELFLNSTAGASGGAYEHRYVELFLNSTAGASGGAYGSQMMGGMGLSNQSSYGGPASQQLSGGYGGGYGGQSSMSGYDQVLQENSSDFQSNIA
UniProt P19474: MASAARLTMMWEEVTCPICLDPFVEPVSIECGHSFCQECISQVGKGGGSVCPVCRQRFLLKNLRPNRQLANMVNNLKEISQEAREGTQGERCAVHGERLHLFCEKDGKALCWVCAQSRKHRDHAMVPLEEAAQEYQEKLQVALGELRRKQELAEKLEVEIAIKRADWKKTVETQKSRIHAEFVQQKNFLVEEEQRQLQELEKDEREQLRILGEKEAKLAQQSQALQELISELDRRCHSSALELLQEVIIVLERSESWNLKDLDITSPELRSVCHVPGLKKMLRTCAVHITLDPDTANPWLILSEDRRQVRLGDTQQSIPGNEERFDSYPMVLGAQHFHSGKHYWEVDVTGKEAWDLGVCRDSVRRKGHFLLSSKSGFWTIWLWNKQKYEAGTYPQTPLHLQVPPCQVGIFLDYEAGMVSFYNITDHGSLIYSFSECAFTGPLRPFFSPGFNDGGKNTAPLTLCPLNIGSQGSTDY
UniProt Q00610: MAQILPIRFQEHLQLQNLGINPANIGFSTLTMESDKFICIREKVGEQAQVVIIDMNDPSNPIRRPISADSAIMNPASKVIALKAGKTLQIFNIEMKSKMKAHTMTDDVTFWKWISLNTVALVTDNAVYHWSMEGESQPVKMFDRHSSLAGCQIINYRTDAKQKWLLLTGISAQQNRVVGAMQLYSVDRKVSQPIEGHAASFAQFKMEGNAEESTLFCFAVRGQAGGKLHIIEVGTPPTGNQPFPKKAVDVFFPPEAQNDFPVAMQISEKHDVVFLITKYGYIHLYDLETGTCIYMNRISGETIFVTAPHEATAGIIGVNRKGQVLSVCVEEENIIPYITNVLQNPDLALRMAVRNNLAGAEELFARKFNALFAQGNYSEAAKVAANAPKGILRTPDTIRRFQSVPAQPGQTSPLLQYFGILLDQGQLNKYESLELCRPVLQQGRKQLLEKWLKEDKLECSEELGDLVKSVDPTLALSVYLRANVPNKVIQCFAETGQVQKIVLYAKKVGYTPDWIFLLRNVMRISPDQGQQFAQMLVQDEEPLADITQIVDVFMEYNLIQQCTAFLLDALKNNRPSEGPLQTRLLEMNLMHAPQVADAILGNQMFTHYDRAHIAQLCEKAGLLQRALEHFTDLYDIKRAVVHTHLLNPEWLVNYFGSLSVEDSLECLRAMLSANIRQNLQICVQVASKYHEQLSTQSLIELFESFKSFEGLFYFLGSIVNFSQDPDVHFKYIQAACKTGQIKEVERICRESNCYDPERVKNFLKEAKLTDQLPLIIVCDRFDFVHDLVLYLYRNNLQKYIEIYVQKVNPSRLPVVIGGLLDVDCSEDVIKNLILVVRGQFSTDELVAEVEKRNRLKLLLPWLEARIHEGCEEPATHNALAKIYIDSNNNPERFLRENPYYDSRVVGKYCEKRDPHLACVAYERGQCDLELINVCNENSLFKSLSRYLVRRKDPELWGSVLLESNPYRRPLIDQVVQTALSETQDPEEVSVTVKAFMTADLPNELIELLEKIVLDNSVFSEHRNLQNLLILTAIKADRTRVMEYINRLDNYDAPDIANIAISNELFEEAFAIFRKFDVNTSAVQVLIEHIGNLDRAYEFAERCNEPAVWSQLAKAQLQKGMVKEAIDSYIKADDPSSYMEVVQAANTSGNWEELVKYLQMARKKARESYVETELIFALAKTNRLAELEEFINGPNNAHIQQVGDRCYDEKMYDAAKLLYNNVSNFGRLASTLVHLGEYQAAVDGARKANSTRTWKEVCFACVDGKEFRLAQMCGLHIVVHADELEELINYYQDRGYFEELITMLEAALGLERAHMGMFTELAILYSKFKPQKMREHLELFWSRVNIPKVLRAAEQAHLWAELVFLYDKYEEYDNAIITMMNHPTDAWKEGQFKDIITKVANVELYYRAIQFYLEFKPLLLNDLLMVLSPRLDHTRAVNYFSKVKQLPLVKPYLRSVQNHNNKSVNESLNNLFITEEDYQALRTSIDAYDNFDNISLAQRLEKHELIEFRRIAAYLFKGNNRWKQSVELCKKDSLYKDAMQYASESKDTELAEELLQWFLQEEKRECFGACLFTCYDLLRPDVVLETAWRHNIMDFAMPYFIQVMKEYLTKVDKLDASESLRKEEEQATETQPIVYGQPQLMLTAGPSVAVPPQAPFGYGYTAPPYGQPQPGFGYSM
UniProt O95425: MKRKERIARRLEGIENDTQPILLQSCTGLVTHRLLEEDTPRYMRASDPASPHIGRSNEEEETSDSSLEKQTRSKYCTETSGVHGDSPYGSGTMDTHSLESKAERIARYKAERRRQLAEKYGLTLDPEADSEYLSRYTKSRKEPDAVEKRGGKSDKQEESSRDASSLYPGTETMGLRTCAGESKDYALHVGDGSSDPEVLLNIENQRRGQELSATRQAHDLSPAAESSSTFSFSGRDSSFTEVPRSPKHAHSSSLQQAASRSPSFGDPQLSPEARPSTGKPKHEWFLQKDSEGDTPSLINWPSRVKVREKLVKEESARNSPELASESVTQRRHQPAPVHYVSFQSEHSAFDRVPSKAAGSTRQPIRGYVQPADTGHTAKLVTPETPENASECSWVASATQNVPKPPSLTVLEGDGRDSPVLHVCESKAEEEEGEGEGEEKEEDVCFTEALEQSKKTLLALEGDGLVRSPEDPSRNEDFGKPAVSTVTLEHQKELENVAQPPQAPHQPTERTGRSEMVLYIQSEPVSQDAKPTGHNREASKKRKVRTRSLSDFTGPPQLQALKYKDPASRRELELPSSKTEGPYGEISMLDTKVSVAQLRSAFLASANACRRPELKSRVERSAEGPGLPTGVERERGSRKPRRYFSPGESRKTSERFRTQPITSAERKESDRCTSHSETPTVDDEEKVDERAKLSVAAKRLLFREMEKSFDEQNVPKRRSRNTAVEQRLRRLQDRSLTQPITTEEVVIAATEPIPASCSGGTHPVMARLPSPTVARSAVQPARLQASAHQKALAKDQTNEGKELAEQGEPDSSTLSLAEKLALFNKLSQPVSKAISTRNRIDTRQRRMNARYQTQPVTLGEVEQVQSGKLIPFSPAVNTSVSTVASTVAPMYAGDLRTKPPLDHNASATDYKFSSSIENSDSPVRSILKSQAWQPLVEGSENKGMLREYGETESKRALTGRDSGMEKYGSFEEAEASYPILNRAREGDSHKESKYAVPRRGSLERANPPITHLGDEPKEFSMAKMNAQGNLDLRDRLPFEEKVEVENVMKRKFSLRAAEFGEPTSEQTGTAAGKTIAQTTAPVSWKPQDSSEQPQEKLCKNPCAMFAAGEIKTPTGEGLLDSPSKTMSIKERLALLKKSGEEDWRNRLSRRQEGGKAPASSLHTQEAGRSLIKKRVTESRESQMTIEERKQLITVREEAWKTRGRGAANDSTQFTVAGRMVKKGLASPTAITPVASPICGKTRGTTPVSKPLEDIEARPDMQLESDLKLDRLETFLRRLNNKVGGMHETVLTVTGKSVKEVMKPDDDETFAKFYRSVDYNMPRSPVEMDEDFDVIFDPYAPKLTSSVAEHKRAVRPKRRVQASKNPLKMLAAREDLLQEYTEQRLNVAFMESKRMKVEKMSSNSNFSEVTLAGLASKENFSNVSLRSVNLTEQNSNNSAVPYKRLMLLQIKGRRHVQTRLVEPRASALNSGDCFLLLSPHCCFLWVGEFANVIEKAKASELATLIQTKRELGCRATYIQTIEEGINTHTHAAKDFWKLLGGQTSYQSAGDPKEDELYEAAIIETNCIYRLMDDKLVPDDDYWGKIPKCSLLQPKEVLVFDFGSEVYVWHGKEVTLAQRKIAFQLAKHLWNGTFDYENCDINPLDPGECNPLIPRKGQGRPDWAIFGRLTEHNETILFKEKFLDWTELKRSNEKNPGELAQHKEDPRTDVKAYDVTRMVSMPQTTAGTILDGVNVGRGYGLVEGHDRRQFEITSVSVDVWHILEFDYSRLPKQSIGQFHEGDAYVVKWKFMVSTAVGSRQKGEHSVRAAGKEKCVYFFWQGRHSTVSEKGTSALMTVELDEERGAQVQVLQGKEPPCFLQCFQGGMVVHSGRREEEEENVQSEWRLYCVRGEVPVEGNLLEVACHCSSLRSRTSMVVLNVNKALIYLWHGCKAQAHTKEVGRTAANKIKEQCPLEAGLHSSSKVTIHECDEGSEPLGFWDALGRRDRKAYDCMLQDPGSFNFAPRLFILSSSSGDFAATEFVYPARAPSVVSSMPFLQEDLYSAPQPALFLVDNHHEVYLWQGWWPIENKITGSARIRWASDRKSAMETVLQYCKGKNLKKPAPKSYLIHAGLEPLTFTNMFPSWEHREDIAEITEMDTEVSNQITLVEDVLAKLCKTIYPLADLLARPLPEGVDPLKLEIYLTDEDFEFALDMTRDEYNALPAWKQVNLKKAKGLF
UniProt P14649: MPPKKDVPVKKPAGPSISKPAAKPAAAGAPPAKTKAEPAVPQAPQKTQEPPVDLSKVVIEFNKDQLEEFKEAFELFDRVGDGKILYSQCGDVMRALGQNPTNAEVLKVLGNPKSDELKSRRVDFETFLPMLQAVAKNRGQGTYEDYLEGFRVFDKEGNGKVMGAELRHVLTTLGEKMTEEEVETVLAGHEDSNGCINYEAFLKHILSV

T1: Deltex3 (human (endogenous in PTC cells)) (UniProt Q8N9I9)
T1 sequence: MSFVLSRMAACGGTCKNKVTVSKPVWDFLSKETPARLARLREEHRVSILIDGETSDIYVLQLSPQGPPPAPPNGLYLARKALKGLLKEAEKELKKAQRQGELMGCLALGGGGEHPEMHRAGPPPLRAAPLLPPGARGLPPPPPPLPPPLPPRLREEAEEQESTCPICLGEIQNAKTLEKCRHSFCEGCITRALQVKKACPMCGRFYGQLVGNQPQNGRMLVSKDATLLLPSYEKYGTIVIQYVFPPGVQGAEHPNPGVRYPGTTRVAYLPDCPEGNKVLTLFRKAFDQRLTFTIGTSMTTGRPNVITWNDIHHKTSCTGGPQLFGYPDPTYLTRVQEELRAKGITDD

B1: Ribosome-binding protein 1 (protein, UniProt Q9P2E9 1-1410)
chain: MDIYDTQTLGVVVFGGFMVVSAIGIFLVSTFSMKETSYEEALANQRKEMAKTHHQKVEKKKKEKTVEKKGKTKKKEEKPNGKIPDHDPAPNVTVLLREPVRAPAVAVAPTPVQPPIIVAPVATVPAMPQEKLASSPKDKKKKEKKVAKVEPAVSSVVNSIQVLTSKAAILETAPKEVPMVVVPPVGAKGNTPATGTTQGKKAEGTQNQSKKAEGAPNQGRKAEGTPNQGKKTEGTPNQGKKAEGTPNQGKKAEGTPNQGKKAEGAQNQGKKVDTTPNQGKKVEGAPTQGRKAEGAQNQAKKVEGAQNQGKKAEGAQNQGKKGEGAQNQGKKAEGAQNQGKKAEGAQNQGKKAEGAQNQGKKAEGAQNQGKKAEGAQNQGKKAEGAQNQGKKVEGAQNQGKKAEGAQNQGKKAEGAQNQGKKAEGAQNQGKKAEGAQNQGKKAEGAQNQGKKAEGAQNQGKKAEGAQNQGKKVEGAQNQGKKAEGAQNQGKKAEGAQNQGKKAEGAQNQGQKGEGAQNQGKKTEGAQGKKAERSPNQGKKGEGAPIQGKKADSVANQGTKVEGITNQGKKAEGSPSEGKKAEGSPNQGKKADAAANQGKKTESASVQGRNTDVAQSPEAPKQEAPAKKKSGSKKKGEPGPPDADGPLYLPYKTLVSTVGSMVFNEGEAQRLIEILSEKAGIIQDTWHKATQKGDPVAILKRQLEEKEKLLATEQEDAAVAKSKLRELNKEMAAEKAKAAAGEAKVKKQLVAREQEITAVQARMQASYREHVKEVQQLQGKIRTLQEQLENGPNTQLARLQQENSILRDALNQATSQVESKQNAELAKLRQELSKVSKELVEKSEAVRQDEQQRKALEAKAAAFEKQVLQLQASHRESEEALQKRLDEVSRELCHTQSSHASLRADAEKAQEQQQQMAELHSKLQSSEAEVRSKCEELSGLHGQLQEARAENSQLTERIRSIEALLEAGQARDAQDVQASQAEADQQQTRLKELESQVSGLEKEAIELREAVEQQKVKNNDLREKNWKAMEALATAEQACKEKLLSLTQAKEESEKQLCLIEAQTMEALLALLPELSVLAQQNYTEWLQDLKEKGPTLLKHPPAPAEPSSDLASKLREAEETQSTLQAECDQYRSILAETEGMLRDLQKSVEEEEQVWRAKVGAAEEELQKSRVTVKHLEEIVEKLKGELESSDQVREHTSHLEAELEKHMAAASAECQNYAKEVAGLRQLLLESQSQLDAAKSEAQKQSDELALVRQQLSEMKSHVEDGDIAGAPASSPEAPPAEQDPVQLKTQLEWTEAILEDEQTQRQKLTAEFEEAQTSACRLQEELEKLRTAGPLESSETEEASQLKERLEKEKKLTSDLGRAATRLQELLKTTQEQLAREKDTVKKLQEQLEKAEDGSSSKEGTSV
B2: EF-hand domain-containing protein D2 (protein, UniProt Q96C19 1-240)
chain: MATDELATKLSRRLQMEGEGGGETPEQPGLNGAAAAAAGAPDEAAEALGSADCELSAKLLRRADLNQGIGEPQSPSRRVFNPYTEFKEFSRKQIKDMEKMFKQYDAGRDGFIDLMELKLMMEKLGAPQTHLGLKNMIKEVDEDFDSKLSFREFLLIFRKAAAGELQEDSGLCVLARLSEIDVSSEGVKGAKSFFEAKVQAINVSSRFEEEIKAEQEERKKQAEEMKQRKAAFKELQSTFK
B3: Peroxiredoxin (protein, UniProt V9HW35 1-162)
chain: MAPIKVGDAIPAVEVFEGEPGNKVNLAELFKGKKGVLFGVPGAFTPGCSKTHLPGFVEQAEALKAKGVQVVACLSVNDAFVTGEWGRAHKAEGKVRLLADPTGAFGKETDLLLDDSLVSIFGNRRLKRFSMVVQDGIVKALNVEPDGTGLTCSLAPNIISQL
B4: Glucosidase, alpha neutral AB, isoform CRA_b (protein, UniProt Q14697 29-944)
chain: ITLAVDRSNFKTCEESSFCKRQRSIRPGLSPYRALLDSLQLGPDSLTVHLIHEVTKVLLVLELQGLQKNMTRFRIDELEPRRPRYRVPDVLVADPPIARLSVSGRDENSVELTMAEGPYKIILTARPFRLDLLEDRSLLLSVNARGLLEFEHQRAPRVSQGSKDPAEGDGAQPEETPRDGDKPEETQGKAEKDEPGAWEETFKTHSDSKPYGPMSVGLDFSLPGMEHVYGIPEHADNLRLKVTEGGEPYRLYNLDVFQYELYNPMALYGSVPVLLAHNPHRDLGIFWLNAAETWVDISSNTAGKTLFGKMMDYLQGSGETPQTDVRWMSETGIIDVFLLLGPSISDVFRQYASLTGTQALPPLFSLGYHQSRWNYRDEADVLEVDQGFDDHNLPCDVIWLDIEHADGKRYFTWDPSRFPQPRTMLERLASKRRKLVAIVDPHIKVDSGYRVHEELRNLGLYVKTRDGSDYEGWCWPGSAGYPDFTNPTMRAWWANMFSYDNYEGSAPNLFVWNDMNEPSVFNGPEVTMLKDAQHYGGWEHRDVHNIYGLYVHMATADGLRQRSGGMERPFVLARAFFAGSQRFGAVWTGDNTAEWDHLKISIPMCLSLGLVGLSFCGADVGGFFKNPEPELLVRWYQMGAYQPFFRAHAHLDTGRREPWLLPSQHNDIIRDALGQRYSLLPFWYTLLYQAHREGIPVMRPLWVQYPQDVTTFNIDDQYLLGDALLVHPVSDSGAHGVQVYLPGQGEVWYDIQSYQKHHGPQTLYLPVTLSSIPVFQRGGTIVPRWMRVRRSSECMKDDPITLFVALSPQGTAQGELFLDDGHTFNYQTRQEFLLRRFSFSGNTLVSSSADPEGHFETPIWIERVVIIGAGKPAAVVLQTKGSPESRLSFQHDPETSVLVLRKPGINVASDWSIHLR
B5: Phosphate carrier protein, mitochondrial (protein, UniProt Q00325 50-362)
chain: AVEEQYSCDYGSGRFFILCGLGGIISCGTTHTALVPLDLVKCRMQVDPQKYKGIFNGFSVTLKEDGVRGLAKGWAPTFLGYSMQGLCKFGFYEVFKVLYSNMLGEENTYLWRTSLYLAASASAEFFADIALAPMEAAKVRIQTQPGYANTLRDAAPKMYKEEGLKAFYKGVAPLWMRQIPYTMMKFACFERTVEALYKFVVPKPRSECSKPEQLVVTFVAGYIAGVFCAIVSHPADSVVSVLNKEKGSSASLVLKRLGFKGVWKGLFARIIMIGTLTALQWFIYDSVKVYFRLPRPPPPEMPESLKKKLGLTQ
B6: NADH: Ubiquinone Oxidoreductase Complex Assembly Factor 5 (protein, UniProt Q5TEU4 37-345)
chain: GSTSPRTLNIFDRDLKRKQKNWAARQPEPTKFDYLKEEVGSRIADRVYDIPRNFPLALDLGCGRGYIAQYLNKETIGKFFQADIAENALKNSSETEIPTVSVLADEEFLPFKENTFDLVVSSLSLHWVNDLPRALEQIHYILKPDGVFIGAMFGGDTLYELRCSLQLAETEREGGFSPHISPFTAVNDLGHLLGRAGFNTLTVDTDEIQVNYPGMFELMEDLQGMGESNCAWNRKALLHRDTMLAAAAVYREMYRNEDGSVPATYQIYYMIGWKYHESQARPAERGSATVSFGELGKINNLMPPGKKSQ
B7: FLOT2 protein (protein, UniProt Q14254 1-428)
chain: MGNCHTVGPNEALVVSGGCCGSDYKQYVFGGWAWAWWCISDTQRISLEIMTLQPRCEDVETAEGVALTVTGVAQVKIMTEKELLAVACEQFLGKNVQDIKNVVLQTLEGHLRSILGTLTVEQIYQDRDQFAKLVREVAAPDVGRMGIEILSFTIKDVYDKVDYLSSLGKTQTAVVQRDADIGVAEAERDAGIREAECKKEMLDVKFMADTKIADSKRAFELQKSAFSEEVNIKTAEAQLAYELQGAREQQKIRQEEIEIEVVQRKKQIAVEAQEILRTDKELIATVRRPAEAEAHRIQQIAEGEKVKQVLLAQAEAEKIRKIGEAEAAVIEAMGKAEAERMKLKAEAYQKYGDAAKMALVLEALPQIAAKIAAPLTKVDEIVVLSGDNSKVTSEVNRLLAELPASVHALTGVDLSKIPLIKKATGVQV

Target: T1, Deltex3 (human (endogenous in PTC cells))
Assay: affinity purification with mass spectrometry; IP-MS: cell lysate in IP lysis buffer, anti-DTX3 antibody or normal IgG overnight at 4 °C, Protein A/G PLUS-Agarose beads, 4 washes, eluted in SDT buffer for MS

Molecule | binding
RNA-binding motif protein, X chromosome (from UniProt P38159 1-391) | binds
Filamin-B (from UniProt O75369 1-2602) | binds
X-ray repair cross-complementing protein 5 (from UniProt P13010 1-732) | binds
Heterogeneous nuclear ribonucleoprotein H (from UniProt P31943 1-449) | binds
Filamin-C (from UniProt Q14315 1-2725) | binds
ATP synthase subunit beta (from UniProt P06576) | binds
Profilin (from UniProt P35080 1-140) | binds
E3 ubiquitin-protein ligase TRIM21 (from UniProt P19474 1-475) | binds
Ras GTPase-activating-like protein IQGAP1 (from UniProt P46940 1-1657) | binds
Poly [ADP-ribose] polymerase 1 (from UniProt P09874) | binds
Heat shock protein HSP 90-alpha (from UniProt P07900 1-732) | binds
Clathrin heavy chain 1 (from UniProt Q00610 1-1675) | binds
Neuroblast differentiation-associated protein AHNAK (from UniProt Q09666 1-5890) | binds
Supervillin (from UniProt O95425 1-2214) | binds
Unconventional myosin-Va (from UniProt Q9Y4I1 1-1855) | binds
ATP synthase subunit alpha, mitochondrial (from UniProt P25705 44-553) | binds
Myosin light chain 6B (from UniProt P14649 1-208) | binds
Spectrin beta chain, non-erythrocytic 1 (from UniProt Q01082 1-2364) | binds
Filamin A (from UniProt P21333 1-2647) | binds
DNA-dependent protein kinase catalytic subunit (from UniProt P78527 1-4128) | binds
B1 | binds
B2 | binds
B3 | binds
B4 | binds
B5 | binds
B6 | binds
B7 | binds

These are yes or no findings as the source states them, for the method shown. Binding seen in cells or lysates may run through a third protein. A yes stands for co-enrichment or nearness to the bait. Other partners may have been found. Tags and fused reporters may be left off the sequences shown.
